Experimental findings from article PMC5532214, “Natural variations in the biofilm-associated protein BslA from the genus Bacillus” (Scientific Reports, 2017) are described below.

These are yes or no findings as the source states them, for the method shown.

This experiment has as its target YweA(31-155) (B. subtilis) (UniProt P39632). Description: SEC; purified, untagged mature regions of the proteins analysed by size exclusion chromatography; SDS-PAGE with and without β-mercaptoethanol was run alongside; both purified. A general note: Size exclusion chromatography separates by hydrodynamic size, large species first.

B1: YweA(31-155) (domain or fragment, UniProt P39632 31-154)
chain: QSASIEAKTVNSTKEWTISDIEVTYKPNAVLSLGAVEFQFPDGFHATTRDSVNGRTLKETQILNDGKTVRLPLTLDLLGASEFDLVMVRKTLPRAGTYTIKGDVVNGLGIGSFYAETQLVIDPR
On to B1, for which the binding entry is recorded as “no binding”.
